Assay results from publication PMC6986101.
These are yes or no findings as the source states them, for the method shown. In cells and extracts the contact can be indirect. These calls come from enrichment with a bait or labelling near it, and not all partners need be listed. No binding means not detected with the bait. For some of these results: Tags and fused reporters may be left off the sequences shown.

The chains behind the UniProt entries cited, without tags or fusion partners. Where a name states a change or a piece, a line headed by the entry shows the natural chain unless it says otherwise. Residues count along the entry.
UniProt P40939, residues 37-763: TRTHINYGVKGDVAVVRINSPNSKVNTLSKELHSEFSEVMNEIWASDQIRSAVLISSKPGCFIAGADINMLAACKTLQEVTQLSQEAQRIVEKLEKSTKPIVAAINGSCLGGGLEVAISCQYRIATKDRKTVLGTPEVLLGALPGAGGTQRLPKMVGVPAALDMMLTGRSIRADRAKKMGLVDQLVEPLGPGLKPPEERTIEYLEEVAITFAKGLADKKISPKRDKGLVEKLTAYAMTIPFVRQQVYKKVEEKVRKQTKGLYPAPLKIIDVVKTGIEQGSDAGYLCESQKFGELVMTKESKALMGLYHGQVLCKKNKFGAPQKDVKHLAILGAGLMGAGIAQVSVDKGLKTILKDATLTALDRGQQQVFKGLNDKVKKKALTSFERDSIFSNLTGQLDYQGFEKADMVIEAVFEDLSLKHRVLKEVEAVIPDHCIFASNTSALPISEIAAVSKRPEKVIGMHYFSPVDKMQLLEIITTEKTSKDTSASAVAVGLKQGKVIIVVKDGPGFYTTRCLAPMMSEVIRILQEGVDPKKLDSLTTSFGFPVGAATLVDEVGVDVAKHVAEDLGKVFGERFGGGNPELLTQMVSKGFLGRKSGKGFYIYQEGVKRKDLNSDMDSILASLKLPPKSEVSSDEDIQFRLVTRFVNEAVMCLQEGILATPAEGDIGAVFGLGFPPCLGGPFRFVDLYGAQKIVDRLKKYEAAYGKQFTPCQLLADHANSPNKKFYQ
UniProt O43464: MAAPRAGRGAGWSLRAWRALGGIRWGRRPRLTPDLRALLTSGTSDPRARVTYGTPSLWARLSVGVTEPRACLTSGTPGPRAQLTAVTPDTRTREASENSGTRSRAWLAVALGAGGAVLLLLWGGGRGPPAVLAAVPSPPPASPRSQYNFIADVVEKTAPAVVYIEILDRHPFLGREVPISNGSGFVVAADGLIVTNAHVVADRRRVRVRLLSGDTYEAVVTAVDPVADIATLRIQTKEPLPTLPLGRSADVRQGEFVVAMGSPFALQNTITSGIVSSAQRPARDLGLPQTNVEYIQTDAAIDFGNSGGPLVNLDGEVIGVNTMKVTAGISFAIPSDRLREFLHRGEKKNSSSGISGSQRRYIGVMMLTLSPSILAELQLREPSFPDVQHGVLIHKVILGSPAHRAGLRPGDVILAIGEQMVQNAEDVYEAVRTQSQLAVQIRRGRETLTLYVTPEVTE
UniProt Q9BXM7, residues 78-581: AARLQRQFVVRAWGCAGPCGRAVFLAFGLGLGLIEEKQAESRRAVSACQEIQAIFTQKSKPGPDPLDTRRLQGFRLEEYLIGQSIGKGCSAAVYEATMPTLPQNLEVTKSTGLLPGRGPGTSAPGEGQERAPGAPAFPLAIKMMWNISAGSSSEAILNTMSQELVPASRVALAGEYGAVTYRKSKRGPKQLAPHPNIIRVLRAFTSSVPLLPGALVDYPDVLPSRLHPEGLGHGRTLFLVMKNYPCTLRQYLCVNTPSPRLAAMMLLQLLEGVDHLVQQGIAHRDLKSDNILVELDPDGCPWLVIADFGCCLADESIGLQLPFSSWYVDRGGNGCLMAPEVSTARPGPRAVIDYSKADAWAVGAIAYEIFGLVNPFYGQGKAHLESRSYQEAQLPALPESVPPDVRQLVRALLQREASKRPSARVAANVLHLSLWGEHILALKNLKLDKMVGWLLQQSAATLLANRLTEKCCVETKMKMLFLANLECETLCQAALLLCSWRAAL
UniProt P31040, residues 43-664: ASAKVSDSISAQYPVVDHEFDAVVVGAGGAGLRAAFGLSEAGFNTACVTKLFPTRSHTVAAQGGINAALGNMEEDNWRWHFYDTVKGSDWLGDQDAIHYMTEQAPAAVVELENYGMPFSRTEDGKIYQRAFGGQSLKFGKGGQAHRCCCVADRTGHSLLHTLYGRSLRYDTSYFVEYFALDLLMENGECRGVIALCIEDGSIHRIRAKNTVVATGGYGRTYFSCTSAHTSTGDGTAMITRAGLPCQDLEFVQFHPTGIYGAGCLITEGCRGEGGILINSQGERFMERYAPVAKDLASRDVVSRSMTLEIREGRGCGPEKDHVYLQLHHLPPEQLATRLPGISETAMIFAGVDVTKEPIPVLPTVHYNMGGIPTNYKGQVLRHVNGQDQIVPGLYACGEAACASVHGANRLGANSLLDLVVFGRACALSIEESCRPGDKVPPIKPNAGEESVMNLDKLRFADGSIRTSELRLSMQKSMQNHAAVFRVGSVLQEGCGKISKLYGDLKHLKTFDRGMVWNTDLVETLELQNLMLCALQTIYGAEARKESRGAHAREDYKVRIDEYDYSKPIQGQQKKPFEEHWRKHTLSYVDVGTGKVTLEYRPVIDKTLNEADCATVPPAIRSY
UniProt P30405, residues 30-207: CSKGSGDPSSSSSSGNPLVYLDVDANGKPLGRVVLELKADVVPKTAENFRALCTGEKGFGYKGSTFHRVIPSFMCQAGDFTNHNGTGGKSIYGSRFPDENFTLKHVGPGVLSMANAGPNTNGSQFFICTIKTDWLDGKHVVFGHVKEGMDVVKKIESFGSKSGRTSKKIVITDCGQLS
UniProt P15104: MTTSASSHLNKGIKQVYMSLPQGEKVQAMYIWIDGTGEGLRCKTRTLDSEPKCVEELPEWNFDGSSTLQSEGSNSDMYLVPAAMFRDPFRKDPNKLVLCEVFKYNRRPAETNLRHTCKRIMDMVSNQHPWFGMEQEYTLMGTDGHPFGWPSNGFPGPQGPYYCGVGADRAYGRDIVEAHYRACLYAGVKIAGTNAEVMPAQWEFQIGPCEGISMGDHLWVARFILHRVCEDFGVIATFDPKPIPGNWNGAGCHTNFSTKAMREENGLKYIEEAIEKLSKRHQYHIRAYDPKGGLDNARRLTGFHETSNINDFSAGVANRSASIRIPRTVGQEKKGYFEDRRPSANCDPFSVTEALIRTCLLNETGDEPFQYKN

Columns and labels:
Assay in all cases: affinity purification with mass spectrometry; anti-HA IP (Dynabeads-Protein G) from 1 mg clarified mitochondrial lysate of transfected HEK293T cells, overnight at 4 °C; lysis buffer 10 mM Tris-HCl pH 7.5, 50 mM NaCl, 1 mM EDTA, 1 mM DTT, 10% glycerol, 10 mM sodium molybdate, 0.1% Triton X-100; LC/MS/MS; list filtered for mitochondrial proteins with 4 or more unique peptides
[1] = target: T1, TRAP1 mutant E115A/R402A with C-terminal HA tag (human) (UniProt Q12931)
T1 sequence: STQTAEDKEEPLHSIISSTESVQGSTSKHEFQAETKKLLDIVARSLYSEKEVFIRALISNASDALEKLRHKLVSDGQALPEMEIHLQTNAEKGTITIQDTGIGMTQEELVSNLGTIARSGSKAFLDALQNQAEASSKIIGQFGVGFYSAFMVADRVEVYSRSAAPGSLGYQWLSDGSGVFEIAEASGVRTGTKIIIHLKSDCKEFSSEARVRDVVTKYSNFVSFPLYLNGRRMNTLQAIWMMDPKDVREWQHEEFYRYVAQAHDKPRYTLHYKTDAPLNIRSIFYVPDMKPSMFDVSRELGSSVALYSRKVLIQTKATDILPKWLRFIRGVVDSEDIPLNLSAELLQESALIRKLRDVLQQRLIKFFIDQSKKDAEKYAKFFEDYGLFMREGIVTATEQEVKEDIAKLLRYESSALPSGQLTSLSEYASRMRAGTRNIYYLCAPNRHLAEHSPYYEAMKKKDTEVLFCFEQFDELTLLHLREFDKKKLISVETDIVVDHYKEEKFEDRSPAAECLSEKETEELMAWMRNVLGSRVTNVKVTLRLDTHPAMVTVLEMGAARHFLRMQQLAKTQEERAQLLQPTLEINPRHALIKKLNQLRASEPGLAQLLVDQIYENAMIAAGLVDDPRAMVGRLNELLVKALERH

[2] = target: TRAP1 mutant ΔStrap with C-terminal HA tag (human) (UniProt Q12931)
[3] = target: WT TRAP1 with C-terminal HA tag (pcDNA3.1 (+) MTS-TRAP1-HA) (human) (UniProt Q12931)

ECHA (from UniProt P40939 37-763) (enzyme)
binding [1]: binds
binding [2]: binds
binding [3]: binds

HTRA2 (from UniProt O43464)
binding [1]: no binding
binding [2]: no binding
binding [3]: no binding

PINK1 (from UniProt Q9BXM7 78-581)
binding [1]: no binding
binding [2]: no binding

SDHA (from UniProt P31040 43-664) (enzyme)
binding [3]: binds

cyclophilin D (from UniProt P30405 30-207)
binding [1]: no binding
binding [2]: no binding

glutamate dehydrogenase (human (endogenous in HEK293T)) (enzyme)
binding [1]: no binding

glutaminase (human (endogenous in HEK293T)) (enzyme)
binding [1]: no binding

glutamine synthase (from UniProt P15104 1-373) (enzyme)
binding [1]: no binding
binding [2]: no binding
binding [3]: no binding
